# In article doi:10.1101/2025.10.01.679907:
# Protein sequences, listed by entry. Tags and fused reporters are not part of them.
# UniProt Q9NR09: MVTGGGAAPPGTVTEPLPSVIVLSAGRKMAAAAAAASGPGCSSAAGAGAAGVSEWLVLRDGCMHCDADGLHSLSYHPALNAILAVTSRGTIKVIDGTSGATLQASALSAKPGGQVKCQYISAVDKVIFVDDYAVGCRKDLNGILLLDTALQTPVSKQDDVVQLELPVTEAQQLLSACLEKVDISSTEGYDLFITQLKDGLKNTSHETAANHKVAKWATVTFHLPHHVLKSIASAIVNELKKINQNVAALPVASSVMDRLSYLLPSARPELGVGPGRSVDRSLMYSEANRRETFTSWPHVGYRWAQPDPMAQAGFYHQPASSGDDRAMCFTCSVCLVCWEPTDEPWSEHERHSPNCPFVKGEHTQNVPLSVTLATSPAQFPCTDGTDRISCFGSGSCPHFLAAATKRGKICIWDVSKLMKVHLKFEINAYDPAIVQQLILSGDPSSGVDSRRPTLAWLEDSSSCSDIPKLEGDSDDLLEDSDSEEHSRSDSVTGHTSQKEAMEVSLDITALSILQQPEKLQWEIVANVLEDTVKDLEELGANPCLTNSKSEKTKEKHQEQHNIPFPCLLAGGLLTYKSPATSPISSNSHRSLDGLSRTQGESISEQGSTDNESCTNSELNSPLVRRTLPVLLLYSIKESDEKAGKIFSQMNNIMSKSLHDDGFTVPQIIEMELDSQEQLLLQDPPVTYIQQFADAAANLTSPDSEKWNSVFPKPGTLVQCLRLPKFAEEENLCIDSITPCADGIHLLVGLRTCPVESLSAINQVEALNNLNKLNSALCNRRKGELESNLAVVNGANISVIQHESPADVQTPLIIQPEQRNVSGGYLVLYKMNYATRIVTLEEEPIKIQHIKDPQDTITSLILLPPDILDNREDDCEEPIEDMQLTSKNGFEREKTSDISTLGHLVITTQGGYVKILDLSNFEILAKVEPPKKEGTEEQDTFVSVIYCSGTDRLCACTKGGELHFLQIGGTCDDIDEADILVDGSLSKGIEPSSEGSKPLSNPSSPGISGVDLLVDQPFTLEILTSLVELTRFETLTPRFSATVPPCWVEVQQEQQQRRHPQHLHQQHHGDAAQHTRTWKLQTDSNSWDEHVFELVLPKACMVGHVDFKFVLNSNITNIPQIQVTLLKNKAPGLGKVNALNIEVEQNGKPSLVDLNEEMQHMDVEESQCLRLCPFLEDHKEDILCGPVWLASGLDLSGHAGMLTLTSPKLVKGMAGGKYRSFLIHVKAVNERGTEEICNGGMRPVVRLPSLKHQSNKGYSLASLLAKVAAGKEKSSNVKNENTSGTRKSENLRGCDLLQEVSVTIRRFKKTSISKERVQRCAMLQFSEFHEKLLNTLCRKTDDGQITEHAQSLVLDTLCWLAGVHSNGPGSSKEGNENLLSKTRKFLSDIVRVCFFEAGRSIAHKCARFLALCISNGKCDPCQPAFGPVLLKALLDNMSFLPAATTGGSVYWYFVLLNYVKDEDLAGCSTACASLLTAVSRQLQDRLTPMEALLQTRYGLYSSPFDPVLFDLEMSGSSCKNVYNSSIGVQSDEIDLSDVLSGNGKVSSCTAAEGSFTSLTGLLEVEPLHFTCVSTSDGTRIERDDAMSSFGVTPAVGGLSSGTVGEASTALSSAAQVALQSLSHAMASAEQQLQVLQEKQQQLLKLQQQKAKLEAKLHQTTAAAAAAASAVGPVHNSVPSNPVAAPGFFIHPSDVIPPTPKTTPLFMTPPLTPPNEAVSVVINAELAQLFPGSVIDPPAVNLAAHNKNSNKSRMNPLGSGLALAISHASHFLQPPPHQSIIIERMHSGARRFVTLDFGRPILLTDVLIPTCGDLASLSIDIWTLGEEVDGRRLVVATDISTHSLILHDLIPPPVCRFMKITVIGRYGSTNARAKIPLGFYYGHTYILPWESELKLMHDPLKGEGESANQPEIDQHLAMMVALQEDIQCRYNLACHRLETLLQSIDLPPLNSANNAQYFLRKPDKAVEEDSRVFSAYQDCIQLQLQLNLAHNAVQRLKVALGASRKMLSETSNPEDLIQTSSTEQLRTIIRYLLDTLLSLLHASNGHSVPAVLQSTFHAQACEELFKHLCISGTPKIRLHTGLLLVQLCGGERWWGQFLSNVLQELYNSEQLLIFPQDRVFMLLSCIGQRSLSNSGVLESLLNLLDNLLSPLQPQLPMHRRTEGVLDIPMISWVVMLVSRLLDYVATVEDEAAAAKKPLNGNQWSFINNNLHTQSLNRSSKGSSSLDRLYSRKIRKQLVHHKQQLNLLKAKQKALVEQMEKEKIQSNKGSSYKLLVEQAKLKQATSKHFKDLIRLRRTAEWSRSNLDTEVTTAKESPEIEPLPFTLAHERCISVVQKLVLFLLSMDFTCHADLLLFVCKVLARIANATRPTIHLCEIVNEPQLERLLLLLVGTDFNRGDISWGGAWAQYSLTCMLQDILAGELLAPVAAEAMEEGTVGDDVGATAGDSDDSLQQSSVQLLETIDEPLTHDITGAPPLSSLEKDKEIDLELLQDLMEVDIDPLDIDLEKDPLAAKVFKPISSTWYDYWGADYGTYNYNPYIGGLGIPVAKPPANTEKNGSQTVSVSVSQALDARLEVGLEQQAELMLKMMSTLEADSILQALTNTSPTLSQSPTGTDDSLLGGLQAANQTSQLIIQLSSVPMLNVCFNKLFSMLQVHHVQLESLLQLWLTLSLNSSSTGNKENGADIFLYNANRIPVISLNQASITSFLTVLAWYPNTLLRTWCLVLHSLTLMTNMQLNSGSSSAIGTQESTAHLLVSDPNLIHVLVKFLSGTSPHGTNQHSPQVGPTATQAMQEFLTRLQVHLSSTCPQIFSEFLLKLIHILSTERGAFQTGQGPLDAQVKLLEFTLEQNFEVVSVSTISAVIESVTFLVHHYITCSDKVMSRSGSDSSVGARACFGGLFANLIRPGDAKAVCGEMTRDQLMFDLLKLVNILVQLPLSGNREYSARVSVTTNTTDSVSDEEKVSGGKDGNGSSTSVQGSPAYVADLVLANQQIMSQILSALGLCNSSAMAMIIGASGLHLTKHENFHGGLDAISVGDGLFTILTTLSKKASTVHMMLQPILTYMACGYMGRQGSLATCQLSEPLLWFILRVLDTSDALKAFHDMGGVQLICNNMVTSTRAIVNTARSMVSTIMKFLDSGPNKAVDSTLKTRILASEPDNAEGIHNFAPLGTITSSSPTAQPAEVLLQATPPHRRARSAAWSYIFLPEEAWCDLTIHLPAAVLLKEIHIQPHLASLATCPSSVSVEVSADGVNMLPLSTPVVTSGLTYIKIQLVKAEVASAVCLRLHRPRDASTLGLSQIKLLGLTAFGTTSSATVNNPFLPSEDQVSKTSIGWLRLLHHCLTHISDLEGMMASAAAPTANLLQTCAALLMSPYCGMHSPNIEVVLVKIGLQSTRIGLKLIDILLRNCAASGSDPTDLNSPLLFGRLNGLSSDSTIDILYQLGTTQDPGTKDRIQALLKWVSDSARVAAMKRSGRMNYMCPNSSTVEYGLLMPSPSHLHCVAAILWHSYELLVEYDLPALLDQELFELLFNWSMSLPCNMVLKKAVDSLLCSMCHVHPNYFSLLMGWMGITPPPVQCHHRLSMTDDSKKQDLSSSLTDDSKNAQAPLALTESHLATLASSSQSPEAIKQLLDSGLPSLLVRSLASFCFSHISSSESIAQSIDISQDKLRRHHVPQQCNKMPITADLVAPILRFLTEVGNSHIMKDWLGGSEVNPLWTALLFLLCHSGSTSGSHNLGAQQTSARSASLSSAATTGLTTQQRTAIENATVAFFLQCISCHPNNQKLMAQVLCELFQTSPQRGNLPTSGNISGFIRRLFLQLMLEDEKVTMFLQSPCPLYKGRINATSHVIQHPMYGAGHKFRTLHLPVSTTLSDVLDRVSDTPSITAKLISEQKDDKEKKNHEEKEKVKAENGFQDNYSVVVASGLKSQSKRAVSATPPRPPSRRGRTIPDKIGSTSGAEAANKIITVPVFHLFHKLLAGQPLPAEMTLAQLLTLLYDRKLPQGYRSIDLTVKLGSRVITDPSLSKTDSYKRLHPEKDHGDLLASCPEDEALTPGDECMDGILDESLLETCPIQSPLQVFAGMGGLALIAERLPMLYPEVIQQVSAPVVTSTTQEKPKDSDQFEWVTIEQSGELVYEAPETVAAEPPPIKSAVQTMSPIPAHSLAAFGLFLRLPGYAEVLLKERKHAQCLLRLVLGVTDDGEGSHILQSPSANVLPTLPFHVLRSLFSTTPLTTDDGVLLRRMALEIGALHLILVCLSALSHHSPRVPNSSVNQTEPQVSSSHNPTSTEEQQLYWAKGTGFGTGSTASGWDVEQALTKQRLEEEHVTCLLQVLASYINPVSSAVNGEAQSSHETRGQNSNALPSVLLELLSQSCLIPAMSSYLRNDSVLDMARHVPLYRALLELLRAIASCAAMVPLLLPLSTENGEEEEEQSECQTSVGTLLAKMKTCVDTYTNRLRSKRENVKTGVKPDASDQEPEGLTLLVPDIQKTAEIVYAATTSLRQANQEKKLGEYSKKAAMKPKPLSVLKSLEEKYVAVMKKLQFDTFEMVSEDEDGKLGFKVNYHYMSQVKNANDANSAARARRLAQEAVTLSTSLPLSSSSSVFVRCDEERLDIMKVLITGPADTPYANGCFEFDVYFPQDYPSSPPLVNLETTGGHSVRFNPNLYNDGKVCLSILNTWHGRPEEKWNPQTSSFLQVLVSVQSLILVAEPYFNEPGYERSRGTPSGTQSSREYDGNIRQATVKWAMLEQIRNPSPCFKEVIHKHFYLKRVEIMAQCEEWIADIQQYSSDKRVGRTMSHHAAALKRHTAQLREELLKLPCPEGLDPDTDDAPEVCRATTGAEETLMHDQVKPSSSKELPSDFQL
# These are yes or no findings as the source states them, for the method shown. In cells and extracts the contact can be indirect. Some binding calls cover weakened binding; strength is not graded here. For part of these data: Tags and fused reporters may be left off the sequences shown.
# How the values were obtained:
# Experiment in all cases: co-IP
# [1] = molecular target: T1, Myc-A20 (Myc-A20-pLVX, overexpressed in DU145 cells) (UniProt P21580)
# T1 sequence: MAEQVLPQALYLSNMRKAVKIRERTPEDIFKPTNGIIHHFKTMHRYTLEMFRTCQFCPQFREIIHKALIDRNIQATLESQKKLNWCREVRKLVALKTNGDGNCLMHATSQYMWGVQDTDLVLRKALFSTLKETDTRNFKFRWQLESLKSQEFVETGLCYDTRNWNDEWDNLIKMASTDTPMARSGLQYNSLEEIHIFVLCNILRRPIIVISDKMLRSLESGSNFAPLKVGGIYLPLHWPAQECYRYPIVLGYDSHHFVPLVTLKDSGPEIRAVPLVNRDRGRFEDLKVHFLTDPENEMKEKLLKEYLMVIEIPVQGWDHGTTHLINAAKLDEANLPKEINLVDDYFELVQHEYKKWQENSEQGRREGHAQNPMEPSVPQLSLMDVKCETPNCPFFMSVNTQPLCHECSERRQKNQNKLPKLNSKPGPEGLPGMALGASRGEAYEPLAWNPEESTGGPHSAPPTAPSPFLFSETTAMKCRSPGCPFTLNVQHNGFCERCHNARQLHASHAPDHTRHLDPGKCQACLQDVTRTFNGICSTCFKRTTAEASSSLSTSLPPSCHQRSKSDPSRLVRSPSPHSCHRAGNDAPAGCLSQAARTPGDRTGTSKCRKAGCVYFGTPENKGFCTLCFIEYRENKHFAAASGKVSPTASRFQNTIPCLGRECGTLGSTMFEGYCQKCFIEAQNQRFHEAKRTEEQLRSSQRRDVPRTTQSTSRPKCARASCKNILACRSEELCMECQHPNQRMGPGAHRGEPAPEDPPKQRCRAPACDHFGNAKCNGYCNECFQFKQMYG
# [2] = molecular target: T2, A20, endogenous in PC3 cells (human (endogenous in PC3)) (UniProt P21580)
# T2 sequence: T1 sequence
# [3] = molecular target: T3, Myc-A20 (full-length A20) (UniProt P21580)
# T3 sequence: T1 sequence
substance,measurement,setting,value
"BIRC6, endogenous in DU145 cells (from UniProt Q9NR09 1-4857)",binding,[1],binds
"BIRC6, endogenous in PC3 cells (from UniProt Q9NR09 1-4857)",binding,[2],binds
Flag-BIRC6 (full-length BIRC6) (from UniProt Q9NR09 1-4857),binding,[3],binds
